According to PubChem BioAssay AID1487 (National Center for Advancing Translational Sciences (NCATS), 2009):
The other results are listed elsewhere or left out. Shown are side measurements of this screen, not its main read-out; they come without a call. The list favours compounds with an active or inconclusive main result. Potencies come from curve fits of mixed quality, noted in brackets.

Assay: qHTS Assay for Modulators of Lamin A Splicing
Details: HeLa LMNA splicing GFP/RFP minigene ratio, 48 h
Outline: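 S3 HeLa stable clones carrying a lamin A-EGFP splicing minigene plus DsRed2 were seeded at 600 cells/well in Opti-MEM with 2% FBS, pin-dosed and incubated 48 h at 37°C. Acumen cytometry (488 nm) gave the GFP/RFP total-intensity ratio.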

[1] = measured here: GFP splicing reporter channel
[2] = measured here: RFP viability control channel

SMILES	AC50 [1]	AC50 [2]
COc1ccc(-c2cc(CNS(=O)(=O)c3ccccc3)on2)cc1	11.2 µM [falling, partial curve]	35.5 µM [falling, partial curve, poor fit]
CNC(=O)/C(=C/c1ccc2c(c1)OCO2)NC(=O)c1ccc(Br)cc1		0.00447 µM [rising, full curve, poor fit]
O=C(c1ccco1)N(Cc1cccs1)c1ccc(F)cc1	0.0355 µM [falling, full curve, poor fit]	0.0631 µM [falling, full curve, poor fit]
CCN(CC)C(=O)c1oc2ccc(S(=O)(=O)N3CCCCCC3)cc2c1C		15.8 µM [rising, partial curve]
Cc1cc(N/N=C/c2ccccc2Br)nc2ccccc12		35.5 µM [rising, single point]
O=C(CN1CCN(C/C=C/c2ccccc2)CC1)Nc1cc([N+](=O)[O-])ccc1Cl		12.6 µM [rising, single point]
Cc1cc(C(=O)CCl)c(C)n1-c1c(C)n(C)n(-c2ccccc2)c1=O		0.0355 µM [rising, full curve, poor fit]
CC1Cc2ccccc2N1C(=S)Nc1cccc(S(=O)(=O)N(C)C)c1 (stereo not given)	2.51 µM [rising, partial curve, poor fit]	
Cc1ccc(-c2csc3ncnc(Sc4nnc(CN5CCCCCC5=O)o4)c23)cc1	5.62 µM [rising, single point]	5.62 µM [rising, single point]
CC(C)(C)NC(=O)CCCSc1nc2ccccc2s1		35.5 µM [rising, single point]
CCOC(=O)c1c(-c2ccccc2)csc1NC(=O)CSc1nc(N)cc(N)n1		12.6 µM [rising, partial curve]
CCOC(=O)/C=c1\s/c(=C\c2sccc2C)c(=O)n1CC(=O)NCc1ccc(C)cc1	4.47 µM [falling, full curve]	5.62 µM [falling, full curve]
COC(=O)c1c(-c2ccc(Cl)cc2)noc1N1CCN(c2ccccc2OC)CC1	5.01 µM [falling, single point]	2.82 µM [falling, full curve]
CCn1ncc(/C=N/NC(=O)c2ccc3c(c2)OCO3)c1C	22.4 µM [falling, single point]	35.5 µM [falling, single point]
CSc1ccc(-c2nnn(Cc3ccccn3)n2)cc1	17.8 µM [rising, single point]	22.4 µM [rising, single point]
Cc1ccc(C(=O)OCC(=O)N2CC(=O)Nc3ccccc32)s1	0.0126 µM [rising, full curve, poor fit]	22.4 µM [rising, partial curve]
CC(=O)Nc1nc(N)n(-c2ccccc2)n1	2.51 µM [rising, partial curve, poor fit]	2.82 µM [rising, partial curve]

Two entries from above in a different format.

| SMILES | AC50 [1] | AC50 [2] |
| --- | --- | --- |
| Cc1cc(N/N=C/c2ccccc2Br)nc2ccccc12 |  | 35.5 µM [rising, single point] |
| Cc1ccc(-c2csc3ncnc(Sc4nnc(CN5CCCCCC5=O)o4)c23)cc1 | 5.62 µM [rising, single point] | 5.62 µM [rising, single point] |

Carrying on.

SMILES	AC50 [1]	AC50 [2]
CCn1c(=NC(=O)c2ccc(S(=O)(=O)N(C)C)cc2)sc2cccc(OC)c21	3.55 µM [falling, partial curve]	3.16 µM [falling, partial curve]
COc1cccc(NC(=O)CN2C(=O)NC(C)(CC(C)C)C2=O)c1 (stereo not given)		0.562 µM [rising, partial curve, poor fit]
Cc1ccc(C2CC(C(F)F)n3ncc(C(=O)Nc4c(C)nn(Cc5c(F)cccc5Cl)c4C)c3N2)cc1 (stereo not given)		6.31 µM [rising, partial curve, poor fit]
Cc1cccc(NC(=O)c2ccc(CN3CC(=O)N4CCCCC4C3=O)cc2)c1C (stereo not given)		0.141 µM [falling, single point]
C[C@H](O)C(=O)C1=Nc2c(nc(N)[nH]c2=O)NC1	5.62 µM [falling, partial curve, poor fit]	6.31 µM [falling, single point]
CC(C)C[C@H](NC(=O)NC(C)C)C(=O)O	2.82 µM [rising, partial curve]	1.78 µM [rising, full curve, poor fit]
Cc1cc(N2CCN(c3cccc(C)c3C)CC2)nc(-c2ccccc2)n1		35.5 µM [rising, single point]
CN(C)CCC(c1ccc(Cl)cc1)c1ccccn1 (stereo not given)	0.891 µM [falling, full curve]	5.62 µM [falling, partial curve, poor fit]
Cn1cc(-c2nc3cnc(N4CCOCC4)nc3n(CCC#N)c2=O)c2ccccc21		11.2 µM [falling, single point]
CN(C)c1cccc(C(=O)N/N=C/c2ccsc2)c1	0.0316 µM [falling, full curve, poor fit]	
O=S(=O)(c1cccc(Cl)c1)n1c(/C=C/c2ccccc2Cl)nc2ccccc21	14.1 µM [rising, single point]	
CCn1cnc2sc(C(=O)N3CCN(Cc4ccc5c(c4)OCO5)CC3)c(C)c2c1=O	11.2 µM [rising, partial curve, poor fit]	14.1 µM [rising, partial curve]
O=C(O)CNC(=O)c1nc(-c2ccccc2)n(-c2ccccc2)n1		0.2 µM [falling, full curve, poor fit]
Cc1ccc(S(=O)(=O)/N=C2/C=C(Sc3ncn[nH]3)C(=O)c3ccccc32)cc1	4.47 µM [falling, full curve]	4.47 µM [falling, full curve]
Oc1cccc(O)c1O	0.708 µM [rising, full curve, poor fit]	14.1 µM [rising, partial curve, poor fit]
COC1=CC(=O)C[C@@H](C)[C@]12Oc1c(Cl)c(OC)cc(OC)c1C2=O	11.2 µM [rising, single point]	
S=C(NCCCc1ccccc1)Nc1ccc(Cl)cc1		17.8 µM [rising, single point]
